From publication PMC12538437, “Branched DNA processing by a thermostable CAS-Cas4 from Thermococcus onnurineus: Expanding biochemical landscape of nuclease activity”
These are yes or no findings as the source states them, for the method shown.

Biological target: TON_0321, CAS-Cas4 protein from Thermococcus onnurineus NA1 (Thermococcus onnurineus NA1) (UniProt B6YTB9)
Assay: SEC; HiLoad 16/60 S200 column, 25 mM Tris-HCl pH 8.0, 10% glycerol, 500 mM NaCl; calibrated with gel filtration markers; several protein concentrations; both purified

B1: TON_0321, CAS-Cas4 protein from Thermococcus onnurineus NA1 (enzyme, UniProt B6YTB9 1-222)
chain: MGYPEEIEEFNERIRNAIVGKTPERKIWVTSLSYCLRKAALSIYLGTFKYERTGEMLVGSVLHEWLGNALSSEDIEFEVTVEYPLEDGWKLVGRVDAVKGNYPLEFKFKGFNGEDESSPKTPDEMNEPPKLAKEQLNAYLNMMDKKLGYIYVFDRNGLSFKPFPVERDKKAFQRILRRAKVVIEGVRQLESGSFPEWIKPRYGKRECGGCLFRPICEAVESK
binding: no binding
